Assay results published in paper PMC2935449.

What was measured:
[1] = biological target: T1, Ubp3-TAP (S. pombe) (UniProt O94269); assay: affinity purification with mass spectrometry; bait endogenously TAP-tagged at its C-terminus, tandem affinity purification from native S. pombe lysate, co-purified proteins identified by 2D LC-MS/MS; duplicates, only proteins found in both replicates
T1 sequence: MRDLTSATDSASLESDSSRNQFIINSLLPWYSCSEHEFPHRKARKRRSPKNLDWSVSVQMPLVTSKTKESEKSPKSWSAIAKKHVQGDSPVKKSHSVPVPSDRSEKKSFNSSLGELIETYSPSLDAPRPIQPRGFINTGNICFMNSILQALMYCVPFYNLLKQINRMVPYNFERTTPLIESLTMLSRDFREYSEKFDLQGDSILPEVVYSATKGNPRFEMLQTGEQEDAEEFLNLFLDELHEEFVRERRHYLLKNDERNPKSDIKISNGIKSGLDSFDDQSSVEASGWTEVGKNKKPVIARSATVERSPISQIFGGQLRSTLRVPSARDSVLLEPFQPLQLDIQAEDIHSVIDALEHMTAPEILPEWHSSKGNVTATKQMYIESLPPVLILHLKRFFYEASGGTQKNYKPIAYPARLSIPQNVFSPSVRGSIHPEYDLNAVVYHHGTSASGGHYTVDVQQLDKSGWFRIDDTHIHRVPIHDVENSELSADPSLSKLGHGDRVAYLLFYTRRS

[2] = biological target: T2, TAP-Ubp11 (S. pombe) (UniProt Q9UUD6); assay: affinity purification with mass spectrometry; bait N-terminally TAP-tagged, expressed at low levels from the nmt81 promoter (pREP81-TAP), tandem affinity purification from native S. pombe lysate, 2D LC-MS/MS; duplicates
T2 sequence: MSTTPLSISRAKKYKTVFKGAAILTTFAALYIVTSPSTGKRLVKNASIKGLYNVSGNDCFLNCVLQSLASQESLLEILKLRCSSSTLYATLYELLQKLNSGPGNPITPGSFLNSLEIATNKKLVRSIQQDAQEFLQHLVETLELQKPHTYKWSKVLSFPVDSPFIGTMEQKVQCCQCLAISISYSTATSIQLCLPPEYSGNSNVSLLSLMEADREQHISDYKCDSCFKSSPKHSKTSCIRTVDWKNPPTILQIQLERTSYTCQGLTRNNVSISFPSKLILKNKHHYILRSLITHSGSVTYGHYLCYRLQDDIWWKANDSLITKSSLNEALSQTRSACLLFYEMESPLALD

[3] = biological target: T3, Ubp4-TAP (S. pombe) (UniProt O60139); assay: affinity purification with mass spectrometry; bait endogenously TAP-tagged at its C-terminus, tandem affinity purification from native S. pombe lysate, co-purified proteins identified by 2D LC-MS/MS; duplicates, only proteins found in both replicates
T3 sequence: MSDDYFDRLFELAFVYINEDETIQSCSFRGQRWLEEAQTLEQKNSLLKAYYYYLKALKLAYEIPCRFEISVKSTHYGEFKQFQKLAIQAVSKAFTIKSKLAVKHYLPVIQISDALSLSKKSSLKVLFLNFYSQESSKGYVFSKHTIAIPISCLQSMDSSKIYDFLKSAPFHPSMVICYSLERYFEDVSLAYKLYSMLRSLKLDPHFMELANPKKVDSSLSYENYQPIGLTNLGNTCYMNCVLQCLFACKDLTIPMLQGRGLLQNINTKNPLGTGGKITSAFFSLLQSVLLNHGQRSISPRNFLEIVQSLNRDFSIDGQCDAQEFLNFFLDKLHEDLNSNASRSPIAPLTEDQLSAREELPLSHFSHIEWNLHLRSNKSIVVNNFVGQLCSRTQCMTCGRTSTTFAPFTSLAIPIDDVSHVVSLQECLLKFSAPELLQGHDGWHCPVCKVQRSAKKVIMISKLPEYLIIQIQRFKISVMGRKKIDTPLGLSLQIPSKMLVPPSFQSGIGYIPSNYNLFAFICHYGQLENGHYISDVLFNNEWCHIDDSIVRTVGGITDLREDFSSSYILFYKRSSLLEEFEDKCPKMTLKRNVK

[4] = biological target: T4, Ubp15-TAP (S. pombe) (UniProt Q9UTT1); assay: as above
T4 sequence: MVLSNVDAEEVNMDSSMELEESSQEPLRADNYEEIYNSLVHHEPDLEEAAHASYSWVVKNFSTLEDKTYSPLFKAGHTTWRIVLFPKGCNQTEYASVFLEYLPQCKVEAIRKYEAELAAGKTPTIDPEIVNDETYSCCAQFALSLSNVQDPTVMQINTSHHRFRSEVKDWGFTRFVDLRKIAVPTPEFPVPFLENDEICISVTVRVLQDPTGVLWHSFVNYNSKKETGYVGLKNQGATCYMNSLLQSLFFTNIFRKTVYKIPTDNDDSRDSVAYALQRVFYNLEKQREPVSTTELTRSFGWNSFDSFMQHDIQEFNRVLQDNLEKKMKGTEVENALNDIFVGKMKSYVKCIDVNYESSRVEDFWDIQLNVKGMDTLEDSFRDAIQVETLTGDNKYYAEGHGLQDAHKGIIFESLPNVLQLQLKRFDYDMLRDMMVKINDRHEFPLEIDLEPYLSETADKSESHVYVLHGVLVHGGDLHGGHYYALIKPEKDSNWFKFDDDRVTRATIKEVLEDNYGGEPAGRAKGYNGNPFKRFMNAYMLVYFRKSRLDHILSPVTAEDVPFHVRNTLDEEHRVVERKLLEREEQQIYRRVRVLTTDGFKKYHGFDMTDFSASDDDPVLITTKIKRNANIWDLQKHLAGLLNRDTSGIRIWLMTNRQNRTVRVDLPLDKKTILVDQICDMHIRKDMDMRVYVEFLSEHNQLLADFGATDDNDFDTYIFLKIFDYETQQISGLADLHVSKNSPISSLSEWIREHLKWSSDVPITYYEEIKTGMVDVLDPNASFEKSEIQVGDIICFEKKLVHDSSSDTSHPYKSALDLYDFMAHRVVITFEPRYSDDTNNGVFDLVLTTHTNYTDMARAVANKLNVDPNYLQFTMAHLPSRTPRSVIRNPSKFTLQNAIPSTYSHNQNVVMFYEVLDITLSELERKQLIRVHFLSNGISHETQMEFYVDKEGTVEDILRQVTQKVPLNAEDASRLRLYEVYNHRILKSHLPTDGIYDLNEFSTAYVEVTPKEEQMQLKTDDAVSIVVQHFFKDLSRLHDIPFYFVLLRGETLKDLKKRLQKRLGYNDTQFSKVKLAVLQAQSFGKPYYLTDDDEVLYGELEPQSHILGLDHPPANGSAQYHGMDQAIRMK

[5] = biological target: T5, Ubp9-TAP (S. pombe) (UniProt Q9P7V9); assay: as above
T5 sequence: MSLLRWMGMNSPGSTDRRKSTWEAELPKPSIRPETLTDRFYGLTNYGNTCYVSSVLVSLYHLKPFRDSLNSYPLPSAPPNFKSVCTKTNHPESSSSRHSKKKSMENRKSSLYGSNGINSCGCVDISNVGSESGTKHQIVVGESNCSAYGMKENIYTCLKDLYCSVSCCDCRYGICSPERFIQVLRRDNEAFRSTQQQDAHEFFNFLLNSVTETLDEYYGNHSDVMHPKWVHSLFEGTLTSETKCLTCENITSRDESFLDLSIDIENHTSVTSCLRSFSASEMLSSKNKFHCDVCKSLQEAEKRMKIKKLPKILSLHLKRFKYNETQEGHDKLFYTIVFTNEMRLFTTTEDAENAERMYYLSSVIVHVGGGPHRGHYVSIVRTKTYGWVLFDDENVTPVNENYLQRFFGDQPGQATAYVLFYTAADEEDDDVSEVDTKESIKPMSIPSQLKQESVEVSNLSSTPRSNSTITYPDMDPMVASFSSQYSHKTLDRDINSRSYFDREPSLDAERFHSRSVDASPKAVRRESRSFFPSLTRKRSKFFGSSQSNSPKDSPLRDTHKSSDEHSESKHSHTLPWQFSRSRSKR

- binding [1]: binds
B1: Nxt3 (protein, UniProt O94260 1-434)
chain: MTAENATLLEPVLGKDEIGWMFVQEYYTYLNKEPNRLHCFYTKKSTLIHGDEGESISLCHGQQEIHNKILDLDFQNCKVLISNVDSLASSNGGIVIQVLGEMSNKGKLSRKFAQTFFLAEQPNGYFVLNDIFRFLREDVEEEEESPDAVEKEKKDVASEPYVNGVQSQEHLPSAKEEGHYQDPAATENNFATAALISNETDSLNQATLAVPEEPVIQVTEASVPSFVSQQENQLQDEALTSNSKNADAIGASDANVATAPKSWADLIARNHPDVKSQASVSSTASTTGQTVKGVNADQTQQPTAPYTQSNELLETSVFVKNIPPETSDVSLKSAMSIFGPVKAIEFARRKGTAYVDFVNHECVQLALNKKTLQINNATLNIEERRRLFSGKFNKSGDKKSNDNYNGMKRNFRKGNRGAFDGRSKEVTTSKKQNN

- binding [2]: binds
B2: Tom70 (protein, UniProt O14217 1-625)
chain: MSGISNAENGKAIVSSGVLNSVSAFVRRHRTFVYTIGAVAVFATVGGVYHVQQKKASHKRSKKLKAHQDKAESKVNEGKNEAAKVVKEEDLKSSETGKDVETAAAAAAAAKKKKKNKKKVKAKKVGDSSVDKIATEESVKSMTKEERAKLAAELKTLGNKAYGQKEYANAIDYYTQAITCSHDPIFFSNRAACYAAIGDFEQVIKDTSEALSLDSSYVKALNRRSAAYEQLGKLDEALMDSTVSCIFDGFANESMTATVERLLKKVAEKKSSALLKERPPKLPAASFIQTYLDSFHAQPKPLFDNKFDGDAALAEAYEYLEKGEYQLSYDKAKESCLGSFSSPSVNARTHNLVGTFKFVSGDSKGSMENFNAAIKLDRKFIQPYIRLSAAYLDENDNEKMWKVLNDAESVDKTDSDLYYHRAQVRFVSGEFAEAISDYQKSIALDDSFIYSHIQLGVAQYKTHAIAESMKTFEDCKKRFPNSSEVYNYFGEILLDQQKFDDAVKNFDHAIELEKREHLTIMSAMPLINKALAVFQWKKDISQAENLCRQALSADPECDIAIASMAQFLLQQGKAREALEYFEKSAQLARTESEMVNAFSYAEATRTQIALTEKYPQLVGRLSNPM

- binding [3]: binds
B3: Sfp47 (SH3 domain Ubp4 partner of 47 kDa) (protein, UniProt O14259 1-415)
chain: MNSFSSNEYSTEISTEALNNWQQLVEQRISLELEYAAKLAKLTKSIKAIKQCAPLNDLTKQVCVELMQCNKKHLEASRYFQTHVKEFMKEYVDRENKFSNETISKSSAAALMTSMENFILFTNPVYHNKLQVPSKSDMEIANSLKITQPAEKNSGTANPISAYSLEHAELDERNNQLSEALSMLRLSPFVNNYYPSYQNRKDGKSLMENRGVVLSVDTVTSPISQSPKKLTPTTSPINSTSLSFVDAKKPGSKWPSQYDFPKKTKSTEIPFKTLPSLNINNERELTKHKLPIVKPKLAVFPSNQATASTLQLAPPPVQAIPTLRNPVNLDDKKESLLKYYATHPTITPDGFPIFAYVRALYAYKATLPSEIDLNVDDTLVVLNRQKDGWWKGLVVSPTVGRIGLFPSNYIEELEY

- binding [4]: binds
- binding [5]: binds
B4: Bun62 (binding Ubp9 of 62 kDa) (protein, UniProt Q10437 1-543)
chain: MQTMSSGIARPVLFLTAREGEYVLKDEFQLGSSSRSTPQITGSPLDPNTPVKRLFFMRINIAQFSRWDYPYPREYIEELKKIHGVHHVEENRDVPSILENYRNSKRKSHNFSSSNTPYLKLHRPASRAGAPLINAKSFISSLTFHDNIVRSFQPSIHGKTFVFANHEKSFYWLDVSAANSHSALLKMEFPRASPVCHDINSFTKSPKGLDVIIGFDTGDVLWYDPINFKYLRFNKNGQLNSSSVTAIKWVAGKDSQFLVSFRNGWLVLYDKYRHEQPLHIVVPEKNLKSLYLSSPGTFNILISINHRDDRKLNPVACYAFSKSPINGFCFSPDYQYLALVSERGTLKLFDFVKEHVLDVFHSYFAGLTCVTWSPDGKFIAIGGKDDLVSIYSFPLRKLVARCQGHKSWVTDVIFDAWRCDDDNYRIASVGLDRKLLLWDFSVSAIHRPKSAVYYVNHHSNNSKPAISDFDDVGDLTMGSEIDNSNYVNGDITIHPTLSRSLIPVISPITIYDVDDSPLSSVFFDPDCMITCATNGRIRTWQRP

No constants are given. Whether binding was seen depends on the method and setting. Binding seen in cells or lysates may run through a third protein. Here binding means that the protein was enriched with, or labelled near, the bait; the list need not be complete. One block for each binder: values may come before it.
